Some of these results come from one statement about several compounds together.
Legend:
MBP-Cdc25C protein = target: T1, MBP-Cdc25C protein (Homo sapiens, UniProt P30307); test: Measurement of the phosphatase activity of the purified Cdc25C recombinant enzyme (OMFP dephosphorylation, fluorescence); assay type: biochemical; conditions: OMFP 500 μM, 4 hours at 30° C.; read-out: CI50 on the phosphatase activity of the purified recombinant enzyme Cdc25-C
T1 construct: made in house
T1 sequence (P30307 1-473): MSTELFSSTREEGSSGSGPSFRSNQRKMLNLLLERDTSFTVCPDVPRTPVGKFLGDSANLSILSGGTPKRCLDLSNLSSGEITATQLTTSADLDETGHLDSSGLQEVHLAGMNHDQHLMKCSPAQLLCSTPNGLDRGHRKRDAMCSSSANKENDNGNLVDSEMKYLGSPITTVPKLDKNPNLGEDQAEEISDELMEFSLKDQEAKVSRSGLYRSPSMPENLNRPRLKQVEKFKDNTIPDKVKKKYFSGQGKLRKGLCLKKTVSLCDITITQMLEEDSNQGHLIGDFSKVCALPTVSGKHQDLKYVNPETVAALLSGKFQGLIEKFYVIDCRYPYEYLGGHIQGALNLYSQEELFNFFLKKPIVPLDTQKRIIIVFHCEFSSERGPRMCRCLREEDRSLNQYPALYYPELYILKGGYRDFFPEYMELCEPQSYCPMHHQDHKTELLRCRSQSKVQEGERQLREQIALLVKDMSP

[1] = test system: DU145 (human prostate cancer cells); test: Antiproliferative activity, WST1 colorimetric test, DU145; assay type: cell-based; conditions: 96 hours treatment, up to 10 μM; read-out: Cl50 on the cell proliferation of the lines DU-145
Procedure: (§1) iii) Characterization of the Antiproliferative Activity:
(§2) By way of example, the effect of a treatment on two human cell lines Mia-Paca2 and DU145 by the compounds of the examples described previously will be studied. The cell lines DU145 (human prostate cancer cells) and Mia-PaCa2 (human pancreas cancer cells) were acquired from the American Tissue Culture Collection (Rockville, Md., USA). The cells placed in 80 μl of Dulbecco's Modified Eagle's medium (Gibco-Brl, Cergy-Pontoise, France) completed with 10% foetal calf serum inactivated by heating (Gibco-Brl, Cergy-Pontoise, France), 50,000 units/l of penicillin and 50 mg/l of streptomycin (Gibco-Brl, 10378-057, Cergy-Pontoise, France), and 2 mM of glutamine (Gibco-Brl, Cergy-Pontoise, France) were seeded on a 96-well plate on day 0. The cells were treated on day 1 for 96 hours with increasing concentrations of each of the compounds to be tested up to 10 μM. At the end of this period, quantification of cell proliferation is evaluated by a colorimetric test based on the cleavage of the tetrazolium salt WST1 by the mitochondrial dehydrogenases in viable cells leading to the formation of formazan (Boehringer Mannheim, Meylan, France). These tests are carried out in duplicate with 8 determinations per concentration tested. For each compound to be tested, the values included in the linear part of the sigmoid were retained for a linear regression analysis and used to estimate the inhibitory concentration IC50. The products are solubilized in dimethylsulphoxide (DMSO) at 10^−2 M and used in culture with 0.1% DMSO final.

[2] = test system: Mia-PaCa2 (human pancreas cancer cells); test: Antiproliferative activity, WST1 colorimetric test, Mia-PaCa2; assay type: cell-based; conditions: 96 hours treatment, up to 10 μM; read-out: CI50 on the cell proliferation of the lines Mia-Paca2
Procedure: as §1, §2

Measured: IC50

Mixture of 2-(2-bromophenyl)-5-{[3-(dimethylamino)propyl]amino}-1,3-benzoxazole-4,7-dione and 2-(2-bromophenyl-6-{[3-(dimethylamino)propyl]amino}-1,3-benzoxazole-4,7-dione [Example 70]
≤ 10 µM: all assays above

Mixture of 2-(2-chlorophenyl)-5-[(2-pyrrolidin-1-ylethyl)amino]-1,3-benzoxazole-4,7-dione and 2-(2-chlorophenyl)-6-[(2-pyrrolidin-1-ylethyl)amino]-1,3-benzoxazole-4,7-dione [Example 72]
≤ 10 µM: all assays above

Mixture of 2-(2-fluorophenyl)-5-[(2-pyrrolidin-1-ylethyl)amino]-1,3-benzothiazole-4,7-dione and 2-(2-fluorophenyl)-6-[(2-pyrrolidin-1-ylethyl)amino]-1,3-benzothiazole-4,7-dione [Example 109]
≤ 10 µM: all assays above

Mixture of 2-(2-fluorophenyl)-5-[(2-pyrrolidin-1-ylethyl)amino]-1,3-benzoxazole-4,7-dione and 2-(2-fluorophenyl)-6-[(2-pyrrolidin-1-ylethyl)amino]-1,3-benzoxazole-4,7-dione [Example 67]
≤ 10 µM: all assays above

Mixture of 2-(2-fluorophenyl)-5-{[2-(dimethylamino)ethyl]amino}-1,3-benzoxazole-4,7-dione and 2-(2-fluorophenyl)-6-{[2-(dimethylamino)ethyl]amino}-1,3-benzoxazole-4,7-dione [Example 66]
≤ 10 µM: all assays above

Mixture of 2-(3,5-difluorophenyl)-5-[(2-pyrrolidin-1-ylethyl)amino]-1,3-benzoxazole-4,7-dione and 2-(3,5-difluorophenyl)-6-[(2-pyrrolidin-1-ylethyl)-amino]-1,3-benzoxazole-4,7-dione [Example 80]
≤ 10 µM: all assays above

Mixture of 2-(3,5-difluorophenyl)-5-{[2-(dimethylamino)ethyl]amino}-1,3-benzoxazole-4,7-dione and 2-(3,5-difluorophenyl)-6-{[2-(dimethylamino)ethyl]amino}-1,3-benzoxazole-4,7-dione [Example 81]
≤ 10 µM: all assays above

Mixture of 2-(3-bromophenyl)-5-{[2-(dimethylamino)ethyl]amino}-1,3-benzoxazole-4,7-dione and 2-(3-bromophenyl)-6-{[2-(dimethylamino)ethyl]amino}-1,3-benzoxazole-4,7-dione [Example 73]
≤ 10 µM: all assays above

Mixture of 2-(4-bromophenyl)-5-[(2-pyrrolidin-1-ylethyl)amino]-1,3-benzoxazole-4,7-dione and 2-(4-bromophenyl)-6-[(2-pyrrolidin-1-ylethyl)amino]-1,3-benzoxazole-4,7-dione [Example 74]
≤ 10 µM: all assays above

Mixture of 2-(4-bromophenyl)-5-{[2-(dimethylamino)ethyl]amino}-1,3-benzoxazole-4,7-dione and 2-(4-bromophenyl)-6-{[2-(dimethylamino)ethyl]amino}-1,3-benzoxazole-4,7-dione [Example 75]
≤ 10 µM: all assays above

Mixture of 2-(4-chlorophenyl)-5-{[2-(dimethylamino)ethyl]amino})-1,3-benzoxazole-4,7-dione and 2-(4-chlorophenyl)-6-{[2-(dimethylamino)ethyl]amino}-1,3-benzoxazole-4,7-dione [Example 63]
≤ 10 µM: all assays above

Mixture of 2-(4-chlorophenyl)-5-{[3-(dimethylamino)propyl]amino}-1,3-benzoxazole-4,7-dione and 2-(4-chlorophenyl)-6-{[3-(dimethylamino)propyl]amino}-1,3-benzoxazole-4,7-dione [Example 64]
≤ 10 µM: all assays above

Mixture of 2-(4-chlorophenyl)-5-{[4-(dimethylamino)butyl]amino}-1,3-benzoxazole-4,7-dione and 2-(4-chlorophenyl)-6-{[4-(dimethylamino)butyl]amino}-1,3-benzoxazole-4,7-dione [Example 65]
≤ 10 µM: all assays above

Mixture of 2-(4-fluorophenyl)-5-[(2-pyrrolidin-1-ylethyl)amino]-1,3-benzothiazole-4,7-dione and 2-(4-fluorophenyl)-[(2-pyrrolidin-1-ylethyl)amino]-1,3-benzothiazole-4,7-dione [Example 110]
≤ 10 µM: all assays above

Mixture of 2-(4-fluorophenyl)-5-[(2-pyrrolidin-1-ylethyl)amino]-1,3-benzoxazole-4,7-dione and 2-(4-fluorophenyl)-6-[(2-pyrrolidin-1-lethyl)amino]-1,3-benzoxazole-4,7-dione [Example 76]
≤ 10 µM: all assays above

Mixture of 2-(chlorophenyl)-5-{[2-(dimethylamino)ethyl]amino}-1,3-benzoxazole-4,7-dione and 2-(2-chlorophenyl)-6-{[2-(dimethylamino)ethyl]amino}-1,3-benzoxazole-4,7-dione [Example 71]
≤ 10 µM: all assays above

Mixture of 2-[2-chloro-5-(trifluoromethyl)phenyl]-5-[(2-pyrrolidin-1-ylethyl)amino]-1,3-benzoxazole-4,7-dione and 2-[2-chloro-5-(trifluoromethyl)phenyl]-6-[(2-pyrrolidin-1-ylethyl)amino]-1,3-benzoxazole-4,7-dione [Example 95]
≤ 10 µM: all assays above

Mixture of 2-[2-chloro-5-(trifluoromethyl)phenyl]-5-{[2-(dimethylamino)ethyl]amino}-1,3-benzoxazole-4,7-dione and 2-[2-chloro-5-(trifluoromethyl)phenyl]-6-{[2-(dimethylamino)ethyl]amino}-1,3-benzoxazole-4,7-dione [Example 94]
≤ 10 µM: all assays above

Mixture of 2-[2-chloro-5-(trifluoromethyl)phenyl]-5-{[3-(dimethylamino)propyl]amino}-1,3-benzoxazole-4,7-dione and 2-[2-chloro-5-(trifluoromethyl)phenyl]-6-{[3-(dimethylamino)propyl]amino}-1,3-benzoxazole-4,7-dione [Example 96]
≤ 10 µM: all assays above

Mixture of 2-[2-chloro-6-fluorophenyl]-5-[(2-pyrrolidin-1-ylethyl)amino]-1,3-benzoxazole-4,7-dione and 2-[2-chloro-6-fluorophenyl]-6-[(2-pyrrolidin-1-ylethyl)amino]-1,3-benzoxazole-4,7-dione [Example 98]
≤ 10 µM: all assays above

Mixture of 2-[2-chloro-6-fluorophenyl]-5-{[3-(dimethylamino)propyl]amino}-1,3-benzoxazole-4,7-dione and 2-[2-chloro-6-fluorophenyl]-6-{[3-(dimethylamino)propyl]amino}-1,3-benzoxazole-4,7-dione [Example 97]
≤ 10 µM: all assays above

Mixture of 2-[2-fluoro-6-(trifluoromethyl)phenyl]-5-[(2-pyrrolidin-1-ylethyl)amino]-1,3-benzoxazole-4,7-dione and 2-[2-fluoro-6-(trifluoromethyl)phenyl]-6-[(2-pyrrolidin-1-ylethyl)amino]-1,3-benzoxazole-4,7-dione [Example 92]
≤ 10 µM: all assays above

From patent publication US7495021B2, “Benzothiazole- and benzooxazole-4,7-dione, derivatives and their use as cdc25 phosphate inhibitors” (Societe de Conseils de Recherches et d'Applications …, priority 2001, dated 2009)
